Measurements as given in PubChem BioAssay AID1956 (SRMLSC, 2009).
This is one part of the list.

test: enhancers of HSV replication in host cells, fold increase, host cell viability (AID 1956); settings: HSV replication augmentation in cells; fold increase: measured here: primary screen fold increase 10 uM, at 10 µM, stronger effect = higher value; viability: measured here: host cell viability series, at 25 µM, stronger effect = lower value; further: tested in PC3 cells

Structure (SMILES)	fold increase	viability
O=P1(Nc2ncccn2)COc2ccccc2OC1	0.73	
CN1CCCCC1COC(=O)C1(O)c2ccccc2CCc2ccccc21 (stereo not drawn)	0.79	
COc1ccccc1OP(C)(=O)Nc1c(C)cccc1C (stereo not drawn)	1.16	
O=P1(Nc2ccc(Br)cn2)COc2ccccc2OC1	0.87	
Cc1ccc(OCC(=O)OC2CN3CCC2CC3)cc1 (stereo not drawn)	0.947	
O=[As](O)(c1cccs1)c1cccs1	1.09	
CP(=O)(Nc1ccc(SC(F)(F)F)cc1)Oc1ccccc1 (stereo not drawn)	0.97	
CCCOc1ccc(NP(C)(=O)Oc2ccc(Cl)cc2)cc1 (stereo not drawn)	0.89	
COc1cc(C2NCCC3(OCCO3)C2(C)C)cc(OC)c1OC.O=[N+]([O-])c1cc([N+](=O)[O-])c(O)c([N+](=O)[O-])c1 (stereo not drawn)	0.95	
CC1CCC(C(C)C)C(OP(=O)(Nc2ccccn2)c2ccccc2)C1 (stereo not drawn)	0.92	
Cc1nn(-c2ccccc2)c2c1P(=O)(N1CCOCC1)N(C)C(c1ccccc1)=N2 (stereo not drawn)	1.12	
O=C(/C=C/c1ccccc1)OC1CN2CCC1CC2 (stereo not drawn)	1.01	
CCOC(=O)C(CC)C1=NC(C)(C)Cc2ccccc21.O=[N+]([O-])c1cc([N+](=O)[O-])c(O)c([N+](=O)[O-])c1 (stereo not drawn)	0.85	
O=[N+]([O-])c1cc([N+](=O)[O-])c(Nc2nnnn2CCO)c([N+](=O)[O-])c1	0.93	
CN(C)C1(CNC(=O)c2ccc(S(C)(=O)=O)cc2)CCCCC1	0.99	
CC1(CBr)Cn2c(nc3ccccc3c2=O)S1 (stereo not drawn)	0.93	
Cc1nc2ccc3ccccc3c2s1.O=[N+]([O-])c1cc([N+](=O)[O-])c(O)c([N+](=O)[O-])c1	0.93	
O=[As](O)(c1ccccc1Br)c1ccccc1Br	1.12	
CN(C(=O)Cc1ccc(Cl)c(Cl)c1)[C@@H]1CCCC[C@H]1N1CCCC1	1.06	
CC(C)/C=N\N=C(\N)N[N+](=O)[O-]	0.92	
CN(CCCl)Cc1cc(Cl)c(NC2=NCCN2)c(Cl)c1	0.75	
CCOP(=O)(Nc1ccc(C)cn1)OCC	0.99	
O=[N+]([O-])c1cc([N+](=O)[O-])c(-n2nnc3ccccc32)c([N+](=O)[O-])c1	0.96	
O=P1(Nc2ccccn2)COc2ccccc2OC1	0.88	

Structure (SMILES)	fold increase	viability
CC(C)(C)C(=O)NC(Sc1ncccn1)C(Cl)(Cl)Cl (stereo not drawn)	1.11	
Clc1n[nH]nc1-c1nn[nH][15n]1	0.78	
CCCOP(=S)(Nc1nc(N)cc(=O)[nH]1)OCCC	0.93	
Cc1ccc(C)c(NP(C)(=O)Oc2ccccc2)c1 (stereo not drawn)	0.95	
Cc1ccc(NCCc2c([N+](=O)[O-])cc([N+](=O)[O-])cc2[N+](=O)[O-])cc1	0.77	
CP(=O)(Nc1cccc(Br)c1)Oc1ccccc1 (stereo not drawn)	0.97	
Cc1cc(C)cc(OP(C)(=O)Nc2ccccn2)c1 (stereo not drawn)	0.69	
CCOP(=O)(Nc1cccc2ccccc12)OCC	1.03	
COc1ccccc1OP(C)(=O)Nc1cccc(Br)c1 (stereo not drawn)	0.98	
COc1cc(C(=O)NCC2(N3CCOCC3)CCCCC2)cc(Cl)c1OC(C)C	0.88	
O=[As](O)(O)c1cccnc1	1.02	
O=C(OC1CN2CCC1CC2)c1ccc(Cl)cc1 (stereo not drawn)	1.02	
CCOC(=O)c1ccc(NP(C)(=O)Oc2cc(C)cc(C)c2)cc1 (stereo not drawn)	0.76	
Cc1cc(C)cc(OP(C)(=O)Nc2ccc(C)cc2C)c1 (stereo not drawn)	0.8	
O=[As](O)(c1cccc(O)c1)c1cccc(O)c1	1.04	
Cc1cccc(OCC(=O)OC2CN3CCC2CC3)c1 (stereo not drawn)	1.01	
NC(=O)Nc1ccc([As](=O)(O)O)cc1	0.91	
CN(C(=O)Cc1ccc(Cl)c(Cl)c1)[C@H]1CC[C@@]2(CCCO2)C[C@@H]1N1CCCC1	0.83	
CC1=NCCc2c1[nH]c1ccccc21.O=[N+]([O-])c1cc([N+](=O)[O-])c(O)c([N+](=O)[O-])c1	1.05	
O=[N+]([O-])c1ccc2c(c1)nnn2O	1.01	
CCOP1(=S)c2c(C)nn(CCC#N)c2N=C(c2ccc(F)cc2)N1C (stereo not drawn)	0.73	
CN(C(=O)Cc1ccccc1)[C@@H]1CC[C@]2(CCCO2)C[C@H]1N1CCCC1	0.81	
CS(=O)(=O)c1cc([N+](=O)[O-])c2no[n+]([O-])c2c1	1.06	
O=P(Nc1nccs1)(c1ccccc1)c1nc2ccccc2s1 (stereo not drawn)	1.06	

Structure (SMILES)	fold increase	viability
O=P(Nc1nccs1)(Oc1ccccc1)Oc1ccccc1	1.03	
O=C(O)c1cccc(Nc2c([N+](=O)[O-])cc([N+](=O)[O-])cc2[N+](=O)[O-])c1	0.94	
CCOP1(=S)c2c(C)nn(CCC#N)c2N=C(c2ccccc2F)N1C (stereo not drawn)	0.84	
O=C(O)COc1ccc([As](=O)(O)O)cc1[N+](=O)[O-]	1	
Nc1ccccc1[As](=O)(O)c1ccccc1	1.06	
CC(C)c1ccc(OP(=O)(Nc2ccccn2)Oc2ccccc2F)cc1 (stereo not drawn)	0.98	
COc1ccccc1OP(C)(=O)Nc1ccc(C)cc1 (stereo not drawn)	0.97	
ClCCSc1nnc(-c2cccnc2)o1	0.89	
CCOC(=O)c1ccc(NP(C)(=O)Oc2ccccc2)cc1 (stereo not drawn)	0.92	
Cc1cc(C)cc(OP(C)(N)=O)c1 (stereo not drawn)	1.12	
O=[N+]([O-])c1cc([N+](=O)[O-])c(-c2ccn[nH]2)s1	0.71	
CCN(CC)C(=S)SC(NC=O)C(Cl)(Cl)Cl (stereo not drawn)	0.93	
CC(C)NC(=O)NP(=O)(Oc1ccccc1)Oc1ccccc1	0.95	
COc1ccccc1OP(C)(=O)Nc1cc(Cl)ccc1C (stereo not drawn)	0.98	
C[As](=O)(O)c1cccc(C(=O)O)c1	0.95	
O=[As](O)(c1ccc(O)cc1)c1ccccc1O	1.18	
Cc1ccc2nc3c(c(C)c2c1)CC(C(Cl)Cl)S3 (stereo not drawn)	1.01	
O=[N+]([O-])c1ccc2c(c1)C=Nc1ccccc1O2	0.8	
Cc1cccc(C)c1OP(C)(N)=O (stereo not drawn)	0.99	
CC(C)(C)c1ccc(OP(C)(=O)Nc2ccc(SC(F)(F)F)cc2)cc1 (stereo not drawn)	0.82	
Cc1ccc(OP(=O)(Nc2ccc([N+](=O)[O-])cn2)Oc2ccc(C)cc2)cc1	0.93	
COc1ccc(N/C(=N/P(=O)(N2CCOCC2)N2CCOCC2)N2CCOCC2)cc1	0.96	
Cc1cc(=O)[nH]c(N[N+](=O)[O-])n1	0.88	
CCN(CC)CCCOC(=O)C(O)(c1ccccc1)c1ccccc1	0.9	

Structure (SMILES)	fold increase	viability
O=C(OC1CN2CCC1CC2)C12CC3CC(CC(C3)C1)C2 (stereo not drawn)	0.93	
Cc1c2c(nc3ccccc13)SC(C(Cl)Cl)C2 (stereo not drawn)	0.9	
COc1cc(I)ccc1[As](=O)(O)O	1.15	
COc1ccc2nc(NP(=O)(c3ccccc3)c3ccccc3)sc2c1	0.98	
CCOC(=O)c1ccc(NC(=O)C(C)(CCl)SC)cc1 (stereo not drawn)	1.1	
CCOC(=O)c1ccc(NP(C)(=O)Oc2ccc(OC)cc2)cc1 (stereo not drawn)	1.12	
CCOP(C)(=S)SCC(=O)NC(C)C(=O)O (stereo not drawn)	1.03	
CP(=O)(Nc1ccccn1)Oc1ccc(Cl)cc1 (stereo not drawn)	0.85	
CCC(C)N(CC(C)C)C(=S)SC(NC(C)=O)C(Cl)(Cl)Cl (stereo not drawn)	0.86	
CP(=O)(Oc1ccccc1)OC(c1ccccc1)C(F)(F)F (stereo not drawn)	0.86	
CP(=O)(Nc1ccc(SC(F)(F)F)cc1)Oc1ccc(Cl)cc1 (stereo not drawn)	0.96	
Cc1cccc(C)c1OP(C)(=O)Nc1ccc(SC(F)(F)F)cc1 (stereo not drawn)	1.15	
COP1(=S)c2c(C)nn(CCC#N)c2N=C(c2ccc(F)cc2)N1C (stereo not drawn)	1	
Cc1cc(C)cc(OP(C)(=O)Nc2ccc(SC(F)(F)F)cc2)c1 (stereo not drawn)	1	
CCc1ccc(OP(C)(=O)N2CCN(c3ccc([N+](=O)[O-])cc3)CC2)cc1 (stereo not drawn)	1.11	
CP(=O)(NC(=O)Nc1ccccc1)Oc1ccccc1 (stereo not drawn)	1.02	
CCOC(=O)Nc1cccc([As](=O)(O)O)c1	1.12	
CP(=S)(Nn1cnnc1)Oc1ccccc1 (stereo not drawn)	1.05	
O=[N+]([O-])c1ccc(Nc2ccc(Oc3ccc([N+](=O)[O-])cc3[N+](=O)[O-])cc2)c([N+](=O)[O-])c1	1.14	
CP(=O)(Nc1ccccc1Br)Oc1ccccc1 (stereo not drawn)	0.97	
COc1ccccc1OP(C)(=O)Nc1ccccc1 (stereo not drawn)	0.98	
Cc1cc(SC(NC=O)C(Cl)(Cl)Cl)ncn1 (stereo not drawn)	0.98	
O=P(Nc1ccccn1)(c1cccc2ccccc12)c1cccc2ccccc12	0.97	
CCOC(=O)Nc1ccc([As](=O)(O)O)c(O)c1	0.99	

Structure (SMILES)	fold increase	viability
Cc1cc(SC(NC(=O)c2ccccc2)C(Cl)(Cl)Cl)nc(C(C)C)n1 (stereo not drawn)	1.34	103%
CC(C)(C)C(=O)NC(Sc1ccncn1)C(Cl)(Cl)Cl (stereo not drawn)	0.94	
O=[N+]([O-])c1ncn(CCn2ncnc2[N+](=O)[O-])n1	0.92	
O=[N+]([O-])c1cccc(NC2=NCC(CBr)S2)c1 (stereo not drawn)	1.05	
O=C(O)CNc1ccc([As](=O)(O)O)cc1	0.99	
O=C(Nc1cc([As](=O)(O)O)ccc1O)c1ccccc1	0.89	
CCOC(=O)c1ccc(NP(C)(=O)Oc2ccc(Cl)cc2)cc1 (stereo not drawn)	0.87	
CP(=O)(OC12CC3CC(CC(C3)C1)C2)OC12CC3CC(CC(C3)C1)C2	0.94	
C[N+]1=C2C=CC=CC=C2SC12C([N+](=O)[O-])=CC([N+](=O)[O-])=C[C-]2[N+](=O)[O-] (stereo not drawn)	0.56	
Nc1ccc([As](=O)(O)c2ccc(N)cc2)cc1	1.09	
CC(C)(C)c1ccc(OP(C)(=O)O)cc1	1.01	
COc1ccccc1OP(C)(=O)Nc1ccccc1Br (stereo not drawn)	0.87	
CP(=O)(Nc1ccc(Cl)cc1)Oc1ccc(F)cc1 (stereo not drawn)	0.99	
CCN(/C(=N/P(=O)(N1CCOCC1)N1CCOCC1)N1CCOCC1)c1ccc(OC)cc1	1.01	
CN(C)C(=O)OCCc1n(C)cc[n+]1C	0.87	
CC(C)=N/N=C(\N)N[N+](=O)[O-]	0.95	
CN(C)C(=O)c1c([N+](=O)[O-])cc([N+](=O)[O-])cc1[N+](=O)[O-]	0.66	
CC1CCN(C(=O)Oc2c(Cl)cc(Cl)c3cccnc23)CC1	0.95	
COc1ccc(OP(C)(=O)Nc2ccc(Br)cc2)cc1 (stereo not drawn)	0.93	
COc1ccc(C2=NCC(CBr)S2)cc1 (stereo not drawn)	1.02	
CCN(CC)CC(O)COC(=O)C(O)(c1ccccc1)C1CCCCC1 (stereo not drawn)	0.9	
